PubChem BioAssay AID1259283 | Sanger Institute, 2017
Here is a random part of 794 reagents tested. 14 of all reagents (1.8%) were called active. 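Calls reflect only viability loss without drug; drug synergy does not enter the call.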 Unmarked entries are inactive. Viability is capped at 1. Reagent sequences are not shown. The record does not give: the amount of reagent, the time to read-out.

Aim: 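Kinome-wide siRNA search for kinases acting with BYL719, cetuximab or trametinib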 (primary screen)
Cell system: HT115 colorectal cancer cells
Reagent: siRNA pool against human genes
Conditions: anchor drug given one day after siRNA: BYL719 at 1 µM, cetuximab at 5 µg/ml, trametinib at 10 nM, or DMSO vehicle alone
Measured: 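Per-drug synergy scores plus replicate-mean viability relative to non-targeting pool #2 wells, also expressed as a robust z-score based on control wells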
Direction: robust z-score, knock-down alone: higher = more viable cells after knock-down; viability, DMSO vs non-targeting control: higher = more viable cells; synergy score with BYL719 and synergy score with cetuximab and synergy score with trametinib: higher = stronger synergy with drug (synthetic lethal)
Hit rule: 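Essential gene: robust z-score less than -3 with no drug added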
Calls: active = essential (z below -3, no drug); inactive = no change without drug

Gene,"robust z-score, knock-down alone","viability, DMSO vs non-targeting control (fraction of control)",synergy score with BYL719,synergy score with cetuximab,synergy score with trametinib
ATR (ATR checkpoint kinase),0.735,0.995,-0.0273,0.0662,0.102
OXSR1 (oxidative stress responsive kinase 1),0.612,0.984,0.0249,0.127,0.115
MAP2K5 (mitogen-activated protein kinase kinase 5),0.191,0.945,0.0881,0.068,-0.0141
NEK1 (NIMA related kinase 1),-0.652,0.867,-0.0592,-0.0118,0.0544
PDGFRB (platelet derived growth factor receptor beta),-1.14,0.821,0.0512,0.0558,0.0254
MAPK8 (mitogen-activated protein kinase 8),0.587,0.981,0.0961,0.0773,0.0454
MUSK (muscle associated receptor tyrosine kinase),-2.74,0.674,-0.0226,0.107,0.19
NEK2 (NIMA related kinase 2),0.622,0.985,-0.000545,0.164,0.116
MPP3 (MAGUK p55 scaffold protein 3),-1.9,0.751,-0.0209,0.191,0.258
RIPK4 (receptor interacting serine/threonine kinase 4),0.789,1,0.00941,-0.0219,-0.145
MAP2K3 (mitogen-activated protein kinase kinase 3),-0.105,0.917,-0.0228,0.0202,0.213
PRPS1L1 (phosphoribosyl pyrophosphate synthetase 1 like 1),-0.2,0.909,-0.0661,0.0291,-0.0376
PSKH1 (protein serine kinase H1),0.627,0.985,-0.0151,0.0717,0.132
SYNCRIP (synaptotagmin binding cytoplasmic RNA interacting protein),-1.75,0.765,0.106,0.226,0.203
LMTK1 (lemur tail kinase 1),-2.53,0.694,-0.103,-0.0138,0.115
CKB (creatine kinase B),0.789,1,-0.0224,0.00909,-0.0864
MAP3K8 (mitogen-activated protein kinase kinase kinase 8),0.32,0.957,0.107,0.0908,-0.00514
CDK3 (cyclin dependent kinase 3),0.789,1,-0.0224,0.00676,0.15
PRKACA (protein kinase cAMP-activated catalytic subunit alpha),0.789,1,0.153,0.162,0.127
STK10 (serine/threonine kinase 10),0.26,0.951,-0.00528,0.0451,0.0145
RIOK3 (RIO kinase 3),0.789,1,0.101,0.177,0.27
STK38L (serine/threonine kinase 38 like),-2.54,0.692,-0.172,0.039,0.0549
PTK2B (protein tyrosine kinase 2 beta),0.00334,0.927,0.1,0.0654,0.265
PINK1 (PTEN induced kinase 1),0.437,0.968,0.0466,0.0359,0.266
SMAD2 (SMAD family member 2),-1.36,0.801,-0.0669,-0.0666,-0.0967
PIP5K1A (phosphatidylinositol-4-phosphate 5-kinase type 1 alpha),0.202,0.946,0.0807,0.152,0.148
"YES1 (YES proto-oncogene 1, Src family tyrosine kinase)",0.0435,0.931,-0.0566,0.0514,0.0564
MAP2K2 (mitogen-activated protein kinase kinase 2),0.554,0.978,-0.0269,0.0134,0.0403
RPS6KB2 (ribosomal protein S6 kinase B2),0.279,0.953,0.0249,0.112,0.118
DGKG (diacylglycerol kinase gamma),-1.53,0.785,-0.216,-0.203,-0.0248
NUP98 (nucleoporin 98 and 96 precursor),-4.02 (active),0.556,-0.12,0.0482,0.0501
EPHA10 (EPH receptor A10),-1.58,0.781,-0.121,0.0966,0.104
SF3B1 (splicing factor 3b subunit 1),-1.67,0.773,0.0148,0.151,0.0635
SCYL1 (SCY1 like pseudokinase 1),0.789,1,-0.0224,-0.0435,-0.101

6 entries from above, arranged by “synergy score with BYL719”, low to high.
Gene,"robust z-score, knock-down alone","viability, DMSO vs non-targeting control (fraction of control)",synergy score with BYL719,synergy score with cetuximab,synergy score with trametinib
DGKG (diacylglycerol kinase gamma),-1.53,0.785,-0.216,-0.203,-0.0248
EPHA10 (EPH receptor A10),-1.58,0.781,-0.121,0.0966,0.104
NUP98 (nucleoporin 98 and 96 precursor),-4.02 (active),0.556,-0.12,0.0482,0.0501
SCYL1 (SCY1 like pseudokinase 1),0.789,1,-0.0224,-0.0435,-0.101
SF3B1 (splicing factor 3b subunit 1),-1.67,0.773,0.0148,0.151,0.0635
RPS6KB2 (ribosomal protein S6 kinase B2),0.279,0.953,0.0249,0.112,0.118
